Measurements as given in PubChem BioAssay AID504847 (National Center for Advancing Translational Sciences (NCATS), 2011).
In all, about 400,000 compounds went through this assay and about 3,700 (0.93%) were called active. The inconclusive results got no clear call from the source; some entries with a clear call stand among them for comparison. Calls come from the whole dose curve; as a rule, active = well fitted inhibition curve with a large enough effect; inconclusive = small, poorly fitted or top-dose-only effect, or another doubt; inactive = no such curve, though single readings can be large or run the other way. Where the call is inconclusive, the potency comes from a doubtful curve fit.

By UniProt entry, the sequences of proteins in these tests, tags left out. Where a name states a change or a piece, a line headed by the entry shows the natural chain unless it says otherwise.
UniProt P11473: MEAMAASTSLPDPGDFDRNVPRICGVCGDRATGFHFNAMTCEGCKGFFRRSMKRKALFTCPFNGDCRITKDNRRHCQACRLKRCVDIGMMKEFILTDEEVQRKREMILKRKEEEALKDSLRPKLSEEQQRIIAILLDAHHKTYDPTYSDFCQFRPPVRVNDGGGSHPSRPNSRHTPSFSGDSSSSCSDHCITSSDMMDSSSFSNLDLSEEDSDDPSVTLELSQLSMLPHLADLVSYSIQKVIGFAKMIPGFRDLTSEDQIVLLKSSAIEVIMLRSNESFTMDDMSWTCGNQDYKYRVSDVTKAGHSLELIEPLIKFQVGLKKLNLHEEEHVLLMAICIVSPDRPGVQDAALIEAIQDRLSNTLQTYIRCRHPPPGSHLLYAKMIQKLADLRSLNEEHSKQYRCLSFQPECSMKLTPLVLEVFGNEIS

target: Vitamin D3 receptor (Homo sapiens) (UniProt P11473); assay: Inhibitors of the vitamin D receptor (VDR): qHTS; conditions: VDR-SRC2-3 peptide fluorescence polarization, 2 h; max response, negative = inhibition: hits give low values
Outline: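 Inhibition of the VDR/SRC2-3 peptide interaction is quantified by fluorescence polarization. Compounds (23 nl, pintool) incubate with the reagents for 2 hours at ambient room temperature.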
% is set by controls: 0 for no effect and ±100 for the full control effect; potency is the fitted concentration of half-maximal effect.

Question: CC(C)=NN1C(c2nonc2N)=NOC1(C)C was tested. Which Potency did it give?
Answer: Its Potency is inconclusive: 79.4 µM [inhibitor, partial curve, poor fit].

Question: Cc1ccc2sc(-c3ccc(NC(=O)/C=C\C(=O)O)cc3)nc2c1 was tested. Which Potency did it give?
Answer: Its Potency is inconclusive: 89.1 µM [inhibitor, single point].

Question: How did the max response, negative = inhibition turn out when Clc1cc(Cl)c2nc(N3CCOCC3)sc2c1 was run?
Answer: The max response, negative = inhibition was inactive: 9.88%.

Question: Which Potency does the source give for CCOc1ccccc1CN1CCNC(=O)C1CC(=O)NC1CCCCCC1 (stereo not drawn) here?
Answer: Its Potency is inconclusive: 35.5 µM [inhibitor, single point].

Question: For CCC(=O)Nc1ccc(S(=O)(=O)Nc2cccc(C)c2)cc1OC, which max response, negative = inhibition is on record?
Answer: Its max response, negative = inhibition is inactive: -11.5%.

Question: Which Potency does the source give for Cc1onc(-c2ccccc2Cl)c1C(=O)N1CC(C)OC(C)C1 (stereo not drawn) here?
Answer: Its Potency is inconclusive: 56.2 µM [inhibitor, partial curve, poor fit].

Question: Which Potency does the source give for COc1cc(C(=O)Nc2scc(-c3ccc(C)cc3)c2C(=O)O)cc(OC)c1OC here?
Answer: The Potency was inconclusive: 89.1 µM [inhibitor, single point].

Question: For O=C(O)c1cccc(CN2C(=O)S/C(=C/c3cccc([N+](=O)[O-])c3)C2=O)c1, which Potency is on record?
Answer: The Potency was active: 20 µM.

Question: With O=C(CCNC(=O)c1ccco1)Nc1ccc(Cl)cc1 as the compound, how does the max response, negative = inhibition read?
Answer: Its max response, negative = inhibition is inactive: -15.5%.

Question: For Cc1ccccc1C(=O)Nc1sc(C)c(C)c1C(=O)c1ccccc1, which Potency is on record?
Answer: Its Potency is inconclusive: 70.8 µM [inhibitor, partial curve].

Question: With Cc1ccc(CNC(=S)Nc2ccc(NS(=O)(=O)c3ccc(C)cc3)cc2)cc1 as the compound, how does the max response, negative = inhibition read?
Answer: Its max response, negative = inhibition is inactive: 13.6%.

Question: For Cc1ccc(C(=O)Nc2nnc(S(=O)(=O)N(C)Cc3ccco3)s2)cc1, which max response, negative = inhibition is on record?
Answer: The max response, negative = inhibition was inactive: -3.72%.

Question: Which max response, negative = inhibition does the source give for O=C(NCCC1=CCCCC1)C(=O)NCC1OCCCN1S(=O)(=O)c1ccc(F)cc1 (stereo not drawn) here?
Answer: The max response, negative = inhibition was inactive: 6.42%.

Question: CC[C@]1(c2ccccc2)C(=O)N(C(=O)OC)N1C(=O)OC was tested. Which Potency did it give?
Answer: The Potency was inconclusive: 89.1 µM [inhibitor, partial curve, poor fit].

Question: How did the Potency turn out when CCOc1ccccc1NC(=O)CSc1nnc(-c2ccncc2)o1 was run?
Answer: Its Potency is inconclusive: 79.4 µM [inhibitor, partial curve, poor fit].

Question: How did the max response, negative = inhibition turn out when N#C/C(=C(/O)COc1ccccc1)c1nc2ccccc2s1 was run?
Answer: The max response, negative = inhibition was inactive: -19.7%.

Question: Which max response, negative = inhibition does the source give for CC(=O)Oc1ccc(C(=O)Nc2nnc(C)s2)cc1 here?
Answer: Its max response, negative = inhibition is inactive: 0.643%.

Question: For S=c1nc(-c2ccc(Br)cc2)[nH]c2ccccc12, which Potency is on record?
Answer: Its Potency is inconclusive: 12.6 µM [inhibitor, partial curve, poor fit].

Question: S=C(Nc1cccc(Cl)c1)Nc1cccc2cnccc12 was tested. Which Potency did it give?
Answer: The Potency was active: 70.8 µM.

Question: Which Potency does the source give for O=C(/C=C/c1ccccc1)/C=C/c1ccccc1 here?
Answer: Its Potency is active: 12.6 µM.

Question: With Cc1sc2ncnc(Sc3ccccc3C(=O)Nc3ccc(Br)cc3)c2c1C as the compound, how does the Potency read?
Answer: The Potency was inconclusive: 44.7 µM [inhibitor, partial curve].

Question: For O=C(O)c1cc([N+](=O)[O-])c(Sc2nc3ccccc3[nH]2)c([N+](=O)[O-])c1, which Potency is on record?
Answer: The Potency was inconclusive: 63.1 µM [inhibitor, partial curve, poor fit].

Question: How did the Potency turn out when CC1=C(C(=O)Nc2ccccn2)C(c2ccc(Br)cc2)NC(=S)N1 (stereo not drawn) was run?
Answer: Its Potency is inconclusive: 20 µM [inhibitor, partial curve, poor fit].

Question: Cc1c(C(=O)N2CCCc3ccccc32)oc2ccc(S(=O)(=O)N3CCOCC3)cc12 was tested. Which max response, negative = inhibition did it give?
Answer: The max response, negative = inhibition was inactive: -21.2%.

Question: Which Potency does the source give for Cc1ccc(NC(=O)CCC(=O)NNS(=O)(=O)c2ccccc2)cc1C here?
Answer: The Potency was inconclusive: 25.1 µM [inhibitor, full curve, poor fit].

Question: How did the Potency turn out when CC(C)(C)NC(=O)C(c1c[nH]c2ccccc12)N(C(=O)Cn1nnc(-c2ccc(F)cc2)n1)c1cccc(O)c1 (stereo not drawn) was run?
Answer: The Potency was inconclusive: 56.2 µM [inhibitor, partial curve, poor fit].

Question: Which Potency does the source give for Cc1ccc(NC(=O)CSc2ccc(C(N)=O)cc2[N+](=O)[O-])cc1C here?
Answer: Its Potency is active: 22.4 µM.

Question: CCOC(=O)c1ccc(NC(=O)CC2C(=O)N(c3cccc(OC)c3)C(=O)N2Cc2cccnc2)cc1 (stereo not drawn) was tested. Which max response, negative = inhibition did it give?
Answer: The max response, negative = inhibition was inactive: -3.8%.

Question: Which max response, negative = inhibition does the source give for CC(=O)c1ccc(NC(=O)C(C)n2nc(-c3ccccc3)ccc2=O)cc1 (stereo not drawn) here?
Answer: The max response, negative = inhibition was inactive: -4.5%.

Question: For CC1CCN(c2nc(-c3cccnc3)nc3scc(-c4ccccc4)c23)CC1, which max response, negative = inhibition is on record?
Answer: The max response, negative = inhibition was inactive: 17.6%.

Question: With Cc1cc(NS(=O)(=O)c2ccc(NC(=O)/C=C/c3ccc(C)o3)cc2)nc(C)n1 as the compound, how does the Potency read?
Answer: The Potency was inconclusive: 31.6 µM [inhibitor, partial curve, poor fit].

Question: With O=C(c1ccc(Br)cc1)c1cc2ccc(O)cc2oc1=O as the compound, how does the Potency read?
Answer: The Potency was inconclusive: 28.2 µM [inhibitor, single point].

Question: With CCOC(=O)C(CC)Sc1ncnc2c1c(-c1ccccc1)cn2-c1ccc(OC)cc1 (stereo not drawn) as the compound, how does the Potency read?
Answer: Its Potency is inconclusive: 89.1 µM [inhibitor, partial curve, poor fit].

Question: How did the max response, negative = inhibition turn out when CCOC(=O)C1=C(COc2ccc(C)cc2)NC(=O)NC1c1cc(C)ccc1C (stereo not drawn) was run?
Answer: The max response, negative = inhibition was inactive: -5.15%.

Question: How did the Potency turn out when COc1ccc2cc(C(=O)N3CCC(Cc4ccccc4)CC3)[nH]c2c1 was run?
Answer: Its Potency is inconclusive: 79.4 µM [inhibitor, partial curve, poor fit].

Question: Which Potency does the source give for Cc1noc(C)c1COc1cccc(C(=O)Nc2ccccc2N2CCOCC2)c1 here?
Answer: Its Potency is inconclusive: 70.8 µM [inhibitor, partial curve, poor fit].

Question: For COc1ccc(CCn2c3c(c(=O)[nH]c2=S)CN(C(C)C)CN3)cc1OC, which Potency is on record?
Answer: Its Potency is inconclusive: 79.4 µM [inhibitor, single point].

Question: Which max response, negative = inhibition does the source give for COc1ccc2[nH]cc(CCNc3ncnc4ccc(-c5ccc6c(c5)OCO6)cc34)c2c1 here?
Answer: Its max response, negative = inhibition is inactive: -8.93%.

Question: O=C(c1ccoc1)N1CCC2(CC1)Oc1ccc(F)cc1C(=O)C21CC(c2ccc(Cl)cc2)=NO1 (stereo not drawn) was tested. Which Potency did it give?
Answer: Its Potency is inconclusive: 28.2 µM [inhibitor, partial curve, poor fit].

Question: How did the Potency turn out when COc1cc2cc(CN(Cc3cccnc3)C(=O)Nc3ccccc3)c(=O)[nH]c2cc1OC was run?
Answer: The Potency was inconclusive: 79.4 µM [inhibitor, single point].

Question: For Cc1cccc(Cn2c(=O)n(CC3CCC(C(=O)NC(C)C)CC3)c(=O)c3sccc32)c1 (stereo not drawn), which max response, negative = inhibition is on record?
Answer: Its max response, negative = inhibition is inactive: -10.5%.

Question: With C=CCN(C(=O)CNC(=O)c1ccco1)C(C(=O)NC1CCCCC1)c1cccnc1 (stereo not drawn) as the compound, how does the max response, negative = inhibition read?
Answer: The max response, negative = inhibition was inactive: -2.14%.

Question: With CCCn1c(N)c(N(CCOC)C(=O)c2cc(Cl)nc3ccccc23)c(=O)[nH]c1=O as the compound, how does the max response, negative = inhibition read?
Answer: The max response, negative = inhibition was inactive: -7.18%.
